PubChem BioAssay AID504791 – Drosophila RNAi Screening Center – 2011

Screen: 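Factors in Argonaute-based small RNA production and activity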 (primary screen)
System: Drosophila S2-derived reporter cells
Reagent: long dsRNA against Drosophila genes, about 150-250 ng dsRNA per well (siRNA assay); about 80-120 ng (miRNA assay)
Duration: about 5 days (siRNA assay); about 4 days (miRNA assay)
Challenge: copper sulfate induction of reporters: 25 µM (siRNA assay); 200 mM stated (miRNA assay), 1-2 days before reading
Measured: 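Per-well ratio of Renilla over firefly light, expressed relative to that plate's average ratio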
Active means: 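First-pass picks had plate-scaled ratios over 1.5 for the siRNA assay, over 1.6 for the miRNA assay, or under 0.6; two distinct dsRNAs had to score alike on retest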
In all, the deposit lists about 23,000 reagents; this is a random part of those that have a named target and a result. Over the whole deposit, 199 (0.86%) got an active call. 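Plate-scaled ratios behind the calls are not deposited; printed light signals are raw; many rows marked increased or decreased are still called inactive.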 A number with no mark means an inactive call. A plus sign joins genes that one reagent is predicted to hit. The record does not give: the direction of the score.

bves [DRSC20520]
- stable assay Renilla, run 1 (luminescence): 5282
- stable assay firefly, run 1 (luminescence): 3.64e5

bves [DRSC20554]
- stable assay Renilla, run 1 (luminescence): 5507
- stable assay firefly, run 1 (luminescence): 3.53e5

bves [DRSC20555]
- stable assay Renilla, run 1 (luminescence): 5071
- stable assay firefly, run 1 (luminescence): 3.94e5

CG42394 + CG6567 [DRSC12821]
- stable assay Renilla, run 1 (luminescence): 5398
- stable assay firefly, run 1 (luminescence): 3.97e5

CG13245 [DRSC02243]
- stable assay Renilla, run 1 (luminescence): 1.42e5
- stable assay firefly, run 1 (luminescence): 1.63e6

GNBP1 (Gram-negative bacteria binding protein 1) [DRSC11169]
- stable assay Renilla, run 1 (luminescence): 7711
- stable assay firefly, run 1 (luminescence): 4.11e5

GNBP1 (Gram-negative bacteria binding protein 1) [DRSC21836]
- stable assay Renilla, run 1 (luminescence): 10305
- stable assay firefly, run 1 (luminescence): 7.36e5

CG42260 [DRSC03953]
- stable assay Renilla, run 1 (luminescence): 4979
- stable assay firefly, run 1 (luminescence): 2.95e5

CG42260 [DRSC04172]
- stable assay Renilla, run 1 (luminescence): 5823
- stable assay firefly, run 1 (luminescence): 3.20e5

CG42260 [DRSC04385]
- stable assay Renilla, run 1 (luminescence): 6666
- stable assay firefly, run 1 (luminescence): 3.73e5

Dif (Dorsal-related immunity factor) [DRSC03316]
- stable assay Renilla, run 1 (luminescence): 7995
- stable assay firefly, run 1 (luminescence): 3.49e5

CG11286 [DRSC14293]
- stable assay Renilla, run 1 (luminescence): 6550
- stable assay firefly, run 1 (luminescence): 3.73e5
